Experimental data published in patent EP3388430A1, “COMPOUND, COMPOUND FOR USE IN THE TREATMENT OF A PATHOLOGICAL CONDITION, A PHARMACEUTICAL COMPOSITION AND A METHOD FOR PREPARING SAID COMPOUND” (Technische Universität München, priority 2017, dated 2018).
At least one compound was matched to its structure with a doubt left.

Experiments:
[1] = system: ABL1 and/or ABL2; test: Selectivity for inhibition of activity of ABL1/ABL2; format: binding
[2] = system: native human protein kinases; test: Chemical proteomic affinity matrix competition: number of target proteins bound; format: binding; conditions: of about 300 native human protein kinases, Fig. 5

SMILES | selectivity for inhibition of activity of ABL1 and/or ABL2 [1] | number of total target proteins targeted [2]
Cc1cccc(C(C)(C)C)c1NC(=O)c1cnc(Nc2cccc(C(=O)NC3CCNCC3)c2)s1 [Compound 33, N-(2-(tert-butyl)-6-methylphenyl)-2-((3-(piperidin-4-ylcarbamoyl)phenyl)amino)thiazole-5-carboxamide] | high selectivity | 
Cc1nc(Nc2ncc(C(=O)Nc3c(C)cccc3Cl)s2)cc(N2CCN(CCO)CC2)n1 [dasatinib] |  | 67
